Our source for the growth estimate values is the supplement of paper PMC5949888.

Most values lie at the floor of the assay. Slopes are relative: functional sequences can read slightly below zero.

This series concerns Saccharomyces cerevisiae PS128 hsf1 delta, HSF1(1-493) fusion. The experiment in a line: growth estimate (transactivation domain function in HSF1 fusion, heat-shock survival) (a.u. (slope of normalised read count over time)); higher = stronger growth at 37°C, i.e. more transactivation activity. The note with it: library: random library.
SRSLIICAFPFYGLGCISES: the growth estimate was below -0.25.

With WGPLDR, the growth estimate is below -0.25. With IEYLCLDAQS the figure was below -0.25. Regarding YALLSPSVRVWKKLRLLTVL, the growth estimate was below -0.25. With PSTNLADMAMSEYVSLFKVA the figure was below -0.25; with GSFGPNCHM, below -0.25.

Consider EEPGLSTLTQNTRGKLDLKQ, for which the growth estimate is below -0.25. With EHCHHPLRFADD the figure was below -0.25.

For LRRRGPDRAVKRHSFNNMLH, the growth estimate is below -0.25. As for LAHIRGLRGGALLSFNWRML, the growth estimate was below -0.25.

In the case of IGGRPVCVRCREGCGSG, the growth estimate is below -0.25. Take VYSPGL: the growth estimate was below -0.25. With QYPFRVIHL the figure was below -0.25.

On to GGTSCGFLTQ, for which the growth estimate was below -0.25.

As to RLQRGIDLNIQRIVTDAAER, the growth estimate is below -0.25. With LLD the figure was below -0.25; with VLNCIMSNHLNAHFRVDGVD, below -0.25; with HRIWYSRAVGVIGEGLYNLP, below -0.25. With APYGSAYKTNYWTRGCKGYR the figure was below -0.25. With NRSRVGLHHLTISMTAGIAR the figure was below -0.25; with ASKEPVERGQVACFPRELCH, below -0.25.

As for HNSFGRPVPGAY, the growth estimate was below -0.25. With PIASQFLHVVSLRTWDSGEP the figure was below -0.25; with DTLV, below -0.25. With SPGEVSGVPRLRPACV the figure was below -0.25; with VPYGPQRSSDSHPVARA, below -0.25. With RREGQAVSRLGSDRPSYARV the figure was below -0.25; with FRATMGNTTRRIGSLVRIAS, below -0.25. In the case of LLLIWTSPAILAFRFSLSET, the growth estimate is below -0.25. With GVIL the figure was below -0.25; with LRRSNLMFMCGNRLLTLTPV, below -0.25.

Consider CSLPGG, for which the growth estimate was below -0.25.

As to QTWEYPGGGADVVDYNWHAL, the growth estimate was below -0.25. With CGSMECSAPAAWGEQYIQRV the figure was below -0.25; with ALIIDN, below -0.25; with DHSVHSFVVVYEASYP, below -0.25. With HKDCYTEAVSLGHGFRASSA the figure was below -0.25. Take KCPSV: the growth estimate was below -0.25. With MCKRRRPTYIVYKFVRTFTD the figure was below -0.25; with DYAA, -0.189. With SLDEFICNAAA the figure was below -0.25; with YLQRELCHR, below -0.25; with TAGVKLKPDVPDQGDGRRSG, below -0.25.

Regarding ACMGGLIRLGGLESRIRIRN, the growth estimate is -0.221. With RQMCPSRSSIFIHRLAPPWI the figure was below -0.25.

As to RRSARGTAVGRGADSHCCHL, the growth estimate was below -0.25. For WIGTNLGGIGW, the growth estimate was -0.0201.

As for WDATVEYFDSVT, the growth estimate was -0.0633.

For VKHRGRRDFARRSPGRGAL, the growth estimate is below -0.25.

In the case of YRSFIPSVGWGVLCYYM, the growth estimate was below -0.25.

On to KSVGQEAGALLLRTGSHGPI, for which the growth estimate is below -0.25. With ERVCNPSLDREPMVERLMLF the figure was below -0.25; with TPARTGLQVASSLVQR, below -0.25. With LIWPGRHLIRRKGAKHQFPP the figure was below -0.25; with TGRCNRPKSLDREFHSQC, below -0.25.

With GAWKEWVNGLDGDGAMVHGR, the growth estimate is -0.241. With RRLT the figure was below -0.25; with GYLRRIWDRPAAKHRRLLTS, below -0.25. With VRAWSRQPKGRRQSRFARRK the figure was below -0.25; with FVTVATTRWRESPCCDF, below -0.25. HELRFPDVGNGLSA: the growth estimate was below -0.25. With VGHTD the figure was below -0.25; with HIW, below -0.25. With KEEGDRLVGLLRRLAPTWRT the figure was below -0.25; with DQRVQERRKAQDWRL, below -0.25; with QSVRWFILLSSVGSSCPSLR, below -0.25. On to TSRNGPMIGLSNLGASLARH, for which the growth estimate was below -0.25.

On to QCVFSNETRYEAR, for which the growth estimate is below -0.25.

For the substance HIKLCQSSIMGC, the growth estimate is below -0.25.

Take VPSCLSRLNHPSCGGA: the growth estimate is below -0.25. Regarding CRKRSMTRTTRLGLASGRPR, the growth estimate was below -0.25. With PVTIK the figure was below -0.25. With IAKVLVKTRGDLTFQRSGSE the figure was below -0.25. With GSPWGRDRPRGSLELHTTTS the figure was below -0.25; with VLTALGSGARLPGMDGVWTD, below -0.25; with LRSGGQGTHHSPGRWLKGRV, below -0.25. For VVLRERGASQGPV, the growth estimate is below -0.25. In the case of STPRVELFARLHCT, the growth estimate was below -0.25. As to GIRRTFVTVAGLCCKGATIL, the growth estimate is below -0.25. With EKLPTVWRAAPGRKT the figure was -0.198. With GSNRTILQKHVVPVSTSIGQ the figure was below -0.25.

Take LPTTWNP: the growth estimate was below -0.25. With TKQYKMIVPTRILTASALIG the figure was below -0.25. With SIVGVKIR the figure was below -0.25; with LFLESGKPESVPAAPSGLAR, below -0.25. With EWFIV the figure was below -0.25. In the case of ILANGVYLELRSVMAHRCPR, the growth estimate is below -0.25.

For the substance VGFVRMSQFWTVVPNVLTCN, the growth estimate is below -0.25.

Consider NCPPVRMCTAVHK, for which the growth estimate was below -0.25. Regarding NLSCAITVT, the growth estimate is below -0.25. As for CKVSCNMVTV, the growth estimate is below -0.25. With FTWTQVIVHSAGRRLPGEKT the figure was below -0.25; with PSNP, below -0.25; with AHCLSVGHSSETYRGDQTGG, below -0.25. With LWGEIVRSAVPYGKGFDTIR the figure was -0.154; with PRVLRTGSFPRAARKKANFG, below -0.25. For APVRGLKDRSAVISYGASHV, the growth estimate was below -0.25.

As for NMQRLGIAPYRSTPVTQR, the growth estimate is below -0.25.

As for VRSVFYFCGHLTGIEGCWGR, the growth estimate was below -0.25. With YSVVIPYAAKIR the figure was -0.246.

For SWHLSAKSGDRVLRAWDTRS, the growth estimate is below -0.25. For RMSIRNY, the growth estimate is below -0.25. Consider CCDGSGGNFVMRVYSIRNCP, for which the growth estimate was below -0.25. With PRISGLPVSC the figure was -0.246; with HPRDSCPTPEGLDEVPSAQ, below -0.25. With PSSDITGIFSVPGRKILAQL the figure was below -0.25; with NSRAFNEKVVLSF, below -0.25; with EGGYVSP, below -0.25. With DVR the figure was below -0.25; with ADHI, below -0.25. In the case of GRVVPVFRYRGHRLLRGYKG, the growth estimate is below -0.25.

Take SRMF: the growth estimate was below -0.25. With DDKLLDFWCGNGCIVSRADV the figure was below -0.25; with RWGTHAEEPL, below -0.25.
